Starred links: 1 amine or outer side, 2 acyl side, 3 side chain; linkers in the order of their positions; H or OH if unused. Positions of bridges follow the written chain, without caps; N, C: chain ends. Non-standard residues stand in square brackets, D forms with d. Residues, ends and D or L forms follow the SMILES beside them. Chains are numbered I, II in the order given. Actinocin(9to1) = Cc1c2oc3c(C)ccc(C(=O)[*:1])c3nc-2c(C(=O)[*:2])c(N)c1=O; NMeV = CN[C@H](C(=O)O)C(C)C; Sar = CNCC(=O)O
Conditions: for amount of drug retained following two 5-minute washings: 10 μg tritiated actinomycin D on discs functionalized with the diazonium molecule
Experimental: In FIG. 1, the electrochemical cell 10 is a standard three-electrode setup. A saturated Calomel electrode (SCE) was used as the reference electrode 12 and the counter electrode 14 was a circular platinum foil (3 cm^2). A 316L stainless steel disk (0.8 cm^2 area) connected to a platinum wire 16 was used as the working electrode 18. The cell was filled with an aqueous electrodeposition solution composed of 5 mM sulfuric acid and 20 mM of an aryldiazonium-containing molecule as described in FIG. 2 for the cyclic voltammetry electrochemical process. The electrodeposition of the aryldiazonium onto the stainless steel device was applied using 2 consecutive cyclic scans ranging from −0.5 V to −1.75 V relatively to the SCE reference electrode. The current-voltage response was followed on a XY recorder. Following electrodeposition, the device was consecutively washed with water and acetonitrile to remove impurities.
FIG. 5 illustrates the necessity of the presence of a molecule containing a diazonium moiety to retain tritiated actinomycin D deposited on the surface of stainless steel 316L discs. In this experiment, stainless steel 316L discs, which are made out of the same material as the stainless steel stents and other endovascular devices, are either functionalized with 4-bromobenzenediazonium or left bare. The discs are then exposed to a solution containing 30 μg of tritiated actinomycin D whereas the solvent is acetonitrile or ethanol. Following dipping, the discs are left to dry at room temperature until the solvent evaporates. The discs are first washed in deionized water for 5 minutes followed by a 5-minute wash in a physiologic solution. The discs are then counted in a scintillation counter.
FIG. 6 illustrates the loading and retention capacity of tritiated actinomycin D immobilized as described previously onto stainless steel 316L discs, with the exception however that water was also used as solvent for immobilizing tritiated actinomycin D. Following immobilization, the discs were first washed for 5 minutes in deionized water followed by a 5-minute wash in a physiologic solution. The loading of tritiated actinomycin D onto the stainless steel discs varied according of the type of solvent used: acetonitrile>ethanol>water.
FIG. 7 illustrates the effect of varying concentrations of the 4-bromobenzenediazonium solution on the loading and retention of 30 μg of tritiated actinomycin D following 8 days of elution in a physiological medium. Stainless steel 316L discs were exposed to varying concentrations of 4-bromobenzenediazonium solution before electrodeposition with the set-up as described in FIG. 1. Actinomycin D loading in the ethanol solution increased 1.6 fold, from 4324±329 for 0.02 M to 7146±80 for 20 mM. However, the residual tritiated actinomycin D remaining on the discs following 8 days of elution was increased 7.3 fold when comparing the 0.02 mM 4-bromobenzenediazonium concentration (348±52) versus 20 mM (2539±43).
FIG. 8 illustrates the retention profiles of actinomycin D loaded onto a stainless steel disk with any one of the molecules having a diazonium moiety illustrated in FIG. 2.

Cc1c2oc3c(C)ccc(C(=O)N[C@@H]4C(=O)N[C@H](C(C)C)C(=O)N5CCC[C@H]5C(=O)N(C)CC(=O)N(C)[C@@H](C(C)C)C(=O)O[C@@H]4C)c3nc-2c(C(=O)N[C@@H]2C(=O)N[C@H](C(C)C)C(=O)N3CCC[C@H]3C(=O)N(C)CC(=O)N(C)[C@@H](C(C)C)C(=O)O[C@@H]2C)c(N)c1=O [actinomycin D] (I: T[dV]P[Sar][NMeV] / II: T[dV]P[Sar][NMeV]; ester I:1-I:C, II:1-II:C; linker I:N-II:N via Actinocin(9to1))
increase of loading, 20 mM versus 0.02 M 4-bromobenzenediazonium (ethanol solution): 1.6 fold | increase of residual drug after 8 days of elution, 20 mM versus 0.02 mM 4-bromobenzenediazonium (physiological medium): 7.3 fold

CCCCCCCCCCOc1ccc([N+]#N)cc1.[Cl-] [molecule 1, 4-decycloxyphenyl diazonium chloride]
amount of drug retained following two 5-minute washings: significantly lower

CCOC(=O)c1cc2ccccc2cc1[N+]#N.F[B-](F)(F)F [molecule 2, 3-ethoxycarbonyl-naphtalene-2-diazonium tetrafluoroborate]
amount of drug retained following two 5-minute washings: similar

F[B-](F)(F)F.N#[N+]c1cc(Cl)cc(Cl)c1 [molecule 3, 3-5-dichlorophenyl diazonium tetrafluoroborate]
amount of drug retained following two 5-minute washings: similar

Cc1cc([N+]#N)c(Cl)cc1NC(=O)c1ccccc1.[Cl-] [molecule 4, 2-chloro-4-benzamido-5-methylbenzene diazonium chloride]
amount of drug retained following two 5-minute washings: similar

F[B-](F)(F)F.N#[N+]c1ccc(Br)cc1 [molecule 5, 4-bromobenzenediazonium tetrafluoroborate]
amount of drug retained following two 5-minute washings: similar

Source: patent publication US20020119178A1 (priority 2001, published 2002)
